# This is one part of the list. The main result of the screen is listed elsewhere. These columns were measured beside it and carry no call. Compounds called inactive in the main read-out are mostly missing here. Words in brackets tell the shape of the fitted curve; partial curves, single points and poor fits give uncertain potencies.
# Test: qHTS Assay for Lipid Storage Modulators in Drosophila S3 Cells;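 as to cell number change: cells counted by Cell Tracker Red CMTPX staining in the red channel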
# Details: BODIPY lipid droplet fluorescence, 18-24 h; for cell number change: measured here: cell count max response, cells fed with added oleic acid
# How it was run: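 Laser-scanning cytometry quantifies lipid droplet accumulation (500–530 nm total intensity; droplet/cell object ratio) in oleic acid-fed (400 uM added) Drosophila S3 cells treated with a concentration series. 20 uM Triacsin C defined 100% inhibition.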
# [1] = measured here: cell number channel AC50, cells fed with added oleic acid
# [2] = measured here: lipid fluorescence (Fed channel) AC50, cells fed with added oleic acid
Structure (SMILES),AC50 [1],AC50 [2],cell number change [%]
Cc1cc(C)c(NC(=O)Cn2ncc3ccccc32)c(C)c1,"0.259 µM [falling, full curve, poor fit]",,
O=C(CSc1ncn(-c2ccccc2)n1)N1CCc2ccccc21,,"0.461 µM [rising, partial curve, poor fit]",
O=C(COC(=O)C1CC1)Nc1ccc(Cl)cc1Cl,,,9.12
CCOc1ccc(C(C(=O)NC2CCCC2)N(C(=O)c2snc(C(N)=O)c2N)C2CCCC2)cc1 (configuration not stated),,,14.6
CC(C)(C)N(NC(=O)Nc1ccc(Cl)cc1)C(=O)c1ccccc1,"23.1 µM [rising, single point]",,116
CCN(CC)c1ccc2c(O)cc(=O)oc2c1,,"10.3 µM [falling, partial curve, poor fit]",-26.9
Nc1nc(-c2ccc(Oc3ccccc3)cc2)c(CC(=O)O)s1,"4.11 µM [rising, full curve, poor fit]","6.51 µM [rising, single point]",29.6
CC(C)CN1CCC(=O)N(CCN=[N+]=[N-])CC1,,"0.58 µM [rising, single point]",24.9
Cc1cc(=O)oc2cc(NC(=O)C(C)Oc3ccccc3)ccc12 (configuration not stated),"14.6 µM [rising, partial curve, poor fit]",,54.6
COc1ccc(/C(C)=N/NC(=O)c2ccccc2OCc2ccccc2)c(OC)c1,,"29.1 µM [rising, single point]",29.2
Cc1ccc(OCc2cc(C(=O)N(C)Cc3cc(C4CC4)n[nH]3)no2)cc1C,,"1.64 µM [rising, partial curve, poor fit]",1.83
CC(O)CN(C)CC/C=C1/c2ccccc2CSc2ccccc21 (configuration not stated),"0.291 µM [rising, full curve]",,37.1
CC1(c2nnc(Cc3ccccc3)o2)CC(c2ccc(OC(F)(F)F)cc2)=NO1 (configuration not stated),,,-11.4
CSc1ccc(S(=O)(=O)NCC(=O)OCC(=O)NCc2cccs2)cc1[N+](=O)[O-],,,-9
Clc1ccc(-n2nnnc2SCc2cn3ccccc3n2)cc1,"29.1 µM [rising, single point]","29.1 µM [rising, partial curve]",185
CC(=O)c1c(C)[nH]c(C(=O)NCCc2c[nH]c3ccccc23)c1C,,"13 µM [rising, partial curve]",11.4
O=C1C=C(c2cc(C(F)(F)F)cc(C(F)(F)F)c2)C[C@@H](c2ccc3c(c2)OCO3)C1,"29.1 µM [falling, single point]","18.4 µM [falling, single point]",-39.7
Cc1cccc(Nc2nnc(SCC(=O)Nc3ccc(C(=O)O)cc3)s2)c1,"0.00461 µM [falling, full curve]","0.0058 µM [falling, full curve, poor fit]",-30.7

Structure (SMILES),AC50 [1],AC50 [2],cell number change [%]
CN1CCN(CCCNC(=O)c2nnc(Cc3c(F)cccc3Cl)o2)CC1,"9.2 µM [falling, partial curve, poor fit]","20.6 µM [falling, single point]",-44.2
COc1ccc(-c2[nH]ncc2CNC(C)CCn2cccn2)cc1F (configuration not stated),,,17.2
COc1cc(N(C)C)c([N+](=O)[O-])cc1C(=O)NC(C)CNc1ccc([N+](=O)[O-])cc1Cl (configuration not stated),,"6.51 µM [rising, single point]",7.76
CCC(c1nnnn1CCc1ccccc1)N(Cc1ccco1)Cc1cc2cccc(C)c2[nH]c1=O (configuration not stated),,,-12.8
O=C(CSc1nnc(CNC(=O)c2ccccc2F)o1)Nc1cccc(C(F)(F)F)c1,"6.51 µM [rising, single point]",,7.65
COc1ccc(/C=C/c2ccc3cccc(O)c3n2)c(OC)c1OC,,"25.9 µM [falling, partial curve, poor fit]",-23.4
O=C(NCc1ccccc1)C1=C[C@H](c2ccc(Br)cc2)C[C@H](OCc2ccc(CO)cc2)O1,,"23.1 µM [rising, single point]",15
O=C(O)CCc1ccc(-c2ccccc2)n1CC1CCCO1 (configuration not stated),"29.1 µM [falling, single point]","25.9 µM [falling, single point]",-47.8
Cc1ccccc1NC(=O)COC(=O)c1ccc(CSc2ccc(Cl)cc2)cc1,,"29.1 µM [rising, single point]",11.1
S=c1[nH]nc(C2CCCCC2)n1/N=C/c1cccs1,"29.1 µM [falling, single point]","18.4 µM [falling, single point]",-51.1
CCn1cc(C(=O)N2CCN(c3ccccn3)CC2)c2cc(OC)c(OC)cc2c1=O,,"0.00411 µM [rising, full curve, poor fit]",15.9
NC(=O)Cc1ccc(Nc2nnc(-c3ccccc3)c3ccccc23)cc1,,"14.6 µM [falling, partial curve, poor fit]",-20.3
O=C(OCC(=O)N1CCCc2ccccc21)c1cc(Cl)ccc1O,,"18.4 µM [rising, single point]",41.1
Cc1ccc(NC(=O)c2[nH]cnc2C(=O)NN)cc1,"0.146 µM [rising, full curve, poor fit]","0.092 µM [rising, full curve, poor fit]",
CC1CCCCN1S(=O)(=O)c1ccc(S(=O)(=O)N2CCN(C)CC2)cc1 (configuration not stated),,"29.1 µM [falling, single point]",-15.2
COC(=O)c1sccc1NC(=O)COc1ccc(C)cc1,"29.1 µM [falling, single point]","32.6 µM [falling, single point]",-40.4
COc1ccc(N(C(=O)c2snc(C(N)=O)c2N)C(C(=O)NC2CCCCC2)c2ccc(C)o2)c(OC)c1 (configuration not stated),,"0.58 µM [rising, single point]",-5.22
CC(=O)N1CCN(c2ccc([N+](=O)[O-])c(NCc3cccnc3)c2)CC1,"20.6 µM [rising, partial curve, poor fit]",,48.9

# 3 compounds picked at random from those above, as already listed:
Structure (SMILES),AC50 [1],AC50 [2],cell number change [%]
O=C(CSc1nnc(CNC(=O)c2ccccc2F)o1)Nc1cccc(C(F)(F)F)c1,"6.51 µM [rising, single point]",,7.65
COc1ccc(N(C(=O)c2snc(C(N)=O)c2N)C(C(=O)NC2CCCCC2)c2ccc(C)o2)c(OC)c1 (configuration not stated),,"0.58 µM [rising, single point]",-5.22
CC(=O)N1CCN(c2ccc([N+](=O)[O-])c(NCc3cccnc3)c2)CC1,"20.6 µM [rising, partial curve, poor fit]",,48.9

# From PubChem BioAssay AID2685 (National Center for Advancing Translational Sciences (NCATS), 2010)
